Test results taken from patent publication US20140206846A1.
No constants are given. Whether binding was seen depends on the method and setting. Some results given as binding are weak or reduced against the parent protein; the word gives no strength.

Molecular target: T1, human VEGF (human), P15692
T1 chain: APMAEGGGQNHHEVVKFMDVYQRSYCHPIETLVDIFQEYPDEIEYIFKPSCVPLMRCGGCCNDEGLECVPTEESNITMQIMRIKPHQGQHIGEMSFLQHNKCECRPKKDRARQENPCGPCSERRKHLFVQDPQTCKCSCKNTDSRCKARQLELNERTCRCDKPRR
Assay: Biacore SPR, Fab captured by anti-light chain antibody, antigen as analyte
Settings: remark: other sources report otherwise

B1: VH6L (bispecific antibody, V domains shown)
VL: NIQKTQSPSSLSASVGDRVTITCRALWHISSYLAWYQQKPGKAPKLLIYAASHLHYGVPSRFSGSGSGTDFTLTISSLQPEDFATYYCQQYSGLPYTFGQGTKVEIK
VH: YYQLVESGGGLVQPGGSLRLSCAADGFLFSGYAMSWIRQAPGKGLEWIGQISGSGGSTVYNYNVLGRFTISRDNSKNTLYLQMNSLRAEDTAVYYCARDTGYFDHWGQGTLVTVSS
How did the binding turn out when B1 was run?
The binding was “binds”.
